Experimental findings from US20070253950A1 are described below.

Protein sequences, listed by entry. Tags and fused reporters are not part of them. Lines headed by an entry give the natural chain unless they say otherwise; changes in a name come on top.
UniProt P09429: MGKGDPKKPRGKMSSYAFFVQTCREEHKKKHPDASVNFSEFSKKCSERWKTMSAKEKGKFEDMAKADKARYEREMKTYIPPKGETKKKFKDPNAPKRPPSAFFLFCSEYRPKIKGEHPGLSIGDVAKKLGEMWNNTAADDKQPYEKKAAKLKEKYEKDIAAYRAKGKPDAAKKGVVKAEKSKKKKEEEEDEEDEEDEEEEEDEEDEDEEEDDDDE
UniProt Q15109: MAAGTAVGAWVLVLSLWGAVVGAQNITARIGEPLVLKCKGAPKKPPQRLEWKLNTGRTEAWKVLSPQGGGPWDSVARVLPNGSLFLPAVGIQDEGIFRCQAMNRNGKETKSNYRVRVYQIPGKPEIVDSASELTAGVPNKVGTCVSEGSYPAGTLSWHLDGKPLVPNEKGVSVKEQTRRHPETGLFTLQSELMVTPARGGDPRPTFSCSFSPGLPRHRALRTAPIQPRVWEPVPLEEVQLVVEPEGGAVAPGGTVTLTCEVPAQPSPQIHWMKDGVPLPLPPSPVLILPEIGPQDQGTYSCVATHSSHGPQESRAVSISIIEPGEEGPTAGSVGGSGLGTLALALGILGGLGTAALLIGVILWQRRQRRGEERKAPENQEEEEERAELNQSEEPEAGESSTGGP

For this assay, the target named is HMGB1 (Homo sapiens (Human)) (UniProt P09429). The assay is described as follows: ELISA: HMGB1 coated, hRAGE-Fc (0.1 ug/ml per paragraph 256) detected with anti-huIgG-HRP. On the technique in general: In an ELISA, binding on a coated surface is turned into a signal by an enzyme label.

Results are given in words; binding and its absence hold for the method and conditions named. Some binding calls cover weakened binding; strength is not graded here.

Regarding “human RAGE-Fc fusion protein (from UniProt Q15109 23-344)”, the binding result is “binds”.
